The supplement of paper PMC12819154, “High-throughput peptide-centric local stability assay extends protein–ligand identification to membrane proteins, tissues and bacteria” (Nature Structural & Molecular Biology, 2025)
Some of the results follow. Small differences around the control level are noise.

Amino acid sequences for entries named in this document (tags omitted). A change or cut given only in a name is not applied to a line headed by its entry.
UniProt P29084: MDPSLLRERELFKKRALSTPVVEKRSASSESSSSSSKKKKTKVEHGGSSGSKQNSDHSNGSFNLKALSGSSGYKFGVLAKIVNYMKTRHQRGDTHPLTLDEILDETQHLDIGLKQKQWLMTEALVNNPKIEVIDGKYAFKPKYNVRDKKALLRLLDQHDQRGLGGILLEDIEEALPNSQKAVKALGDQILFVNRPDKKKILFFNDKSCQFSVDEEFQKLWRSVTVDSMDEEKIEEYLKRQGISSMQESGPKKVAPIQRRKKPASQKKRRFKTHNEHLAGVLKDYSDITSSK
UniProt P35638, whole entry: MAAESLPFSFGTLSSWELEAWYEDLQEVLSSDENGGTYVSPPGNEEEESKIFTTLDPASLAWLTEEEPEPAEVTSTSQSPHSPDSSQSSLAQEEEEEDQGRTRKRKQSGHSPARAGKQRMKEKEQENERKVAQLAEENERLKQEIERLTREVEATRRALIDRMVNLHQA
UniProt P42575: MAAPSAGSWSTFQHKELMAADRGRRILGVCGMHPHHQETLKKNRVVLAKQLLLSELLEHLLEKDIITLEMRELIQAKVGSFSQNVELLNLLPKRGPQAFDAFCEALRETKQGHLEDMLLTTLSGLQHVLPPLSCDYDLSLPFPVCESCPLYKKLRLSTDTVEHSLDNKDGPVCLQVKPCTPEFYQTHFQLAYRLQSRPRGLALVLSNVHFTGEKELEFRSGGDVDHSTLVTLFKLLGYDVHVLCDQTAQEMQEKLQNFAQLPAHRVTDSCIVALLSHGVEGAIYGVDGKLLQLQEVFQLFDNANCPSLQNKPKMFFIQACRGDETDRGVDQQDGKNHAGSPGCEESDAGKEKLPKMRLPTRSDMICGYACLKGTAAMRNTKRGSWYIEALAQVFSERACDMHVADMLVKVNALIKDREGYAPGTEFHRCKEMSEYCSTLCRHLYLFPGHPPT
UniProt P35499, whole entry, looked up: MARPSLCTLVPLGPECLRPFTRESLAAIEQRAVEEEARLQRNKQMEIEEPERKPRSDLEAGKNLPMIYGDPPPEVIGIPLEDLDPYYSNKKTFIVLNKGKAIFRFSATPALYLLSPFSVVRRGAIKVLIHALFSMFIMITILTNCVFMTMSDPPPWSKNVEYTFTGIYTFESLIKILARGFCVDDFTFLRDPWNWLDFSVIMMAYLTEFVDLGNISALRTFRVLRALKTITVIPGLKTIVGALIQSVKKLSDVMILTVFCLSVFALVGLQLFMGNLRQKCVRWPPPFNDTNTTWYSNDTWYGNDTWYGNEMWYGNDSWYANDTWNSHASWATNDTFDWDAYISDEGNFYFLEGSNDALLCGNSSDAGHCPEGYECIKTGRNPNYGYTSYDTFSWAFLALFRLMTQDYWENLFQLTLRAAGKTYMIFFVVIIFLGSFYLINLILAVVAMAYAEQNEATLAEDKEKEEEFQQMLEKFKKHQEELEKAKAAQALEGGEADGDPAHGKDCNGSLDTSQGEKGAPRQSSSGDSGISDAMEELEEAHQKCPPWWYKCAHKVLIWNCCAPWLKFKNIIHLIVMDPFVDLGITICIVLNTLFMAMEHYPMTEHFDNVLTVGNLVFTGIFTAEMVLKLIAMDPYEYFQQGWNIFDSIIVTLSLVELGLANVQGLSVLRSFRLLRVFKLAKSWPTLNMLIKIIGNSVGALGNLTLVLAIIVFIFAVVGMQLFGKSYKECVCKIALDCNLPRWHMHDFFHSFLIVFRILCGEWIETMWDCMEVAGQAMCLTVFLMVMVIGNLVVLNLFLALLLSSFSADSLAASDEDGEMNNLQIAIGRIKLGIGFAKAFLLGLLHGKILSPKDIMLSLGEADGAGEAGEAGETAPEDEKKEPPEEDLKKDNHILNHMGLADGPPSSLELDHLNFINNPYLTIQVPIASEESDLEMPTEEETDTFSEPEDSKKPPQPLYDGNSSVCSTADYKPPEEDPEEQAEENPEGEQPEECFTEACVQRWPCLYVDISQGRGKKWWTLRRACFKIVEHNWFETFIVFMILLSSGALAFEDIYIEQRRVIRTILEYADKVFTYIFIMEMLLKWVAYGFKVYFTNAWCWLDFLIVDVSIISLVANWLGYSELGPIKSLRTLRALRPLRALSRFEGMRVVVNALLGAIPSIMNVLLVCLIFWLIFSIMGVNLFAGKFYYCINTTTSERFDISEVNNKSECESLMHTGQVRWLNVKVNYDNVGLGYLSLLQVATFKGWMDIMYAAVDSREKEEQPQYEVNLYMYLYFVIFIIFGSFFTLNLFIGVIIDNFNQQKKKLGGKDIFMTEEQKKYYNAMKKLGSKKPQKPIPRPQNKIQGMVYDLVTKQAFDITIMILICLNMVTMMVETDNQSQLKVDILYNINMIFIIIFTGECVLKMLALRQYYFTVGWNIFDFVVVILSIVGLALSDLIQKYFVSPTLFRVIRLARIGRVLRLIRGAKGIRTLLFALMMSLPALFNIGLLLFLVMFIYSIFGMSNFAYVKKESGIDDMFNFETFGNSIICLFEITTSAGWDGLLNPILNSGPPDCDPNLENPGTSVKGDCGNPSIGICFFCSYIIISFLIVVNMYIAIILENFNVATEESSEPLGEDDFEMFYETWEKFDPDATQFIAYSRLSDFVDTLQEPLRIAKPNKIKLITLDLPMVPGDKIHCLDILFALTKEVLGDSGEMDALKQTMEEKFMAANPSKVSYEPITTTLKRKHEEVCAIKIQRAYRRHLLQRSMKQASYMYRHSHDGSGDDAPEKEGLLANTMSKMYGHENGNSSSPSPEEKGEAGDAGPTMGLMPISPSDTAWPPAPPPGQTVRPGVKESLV
UniProt P36873, whole entry, looked up: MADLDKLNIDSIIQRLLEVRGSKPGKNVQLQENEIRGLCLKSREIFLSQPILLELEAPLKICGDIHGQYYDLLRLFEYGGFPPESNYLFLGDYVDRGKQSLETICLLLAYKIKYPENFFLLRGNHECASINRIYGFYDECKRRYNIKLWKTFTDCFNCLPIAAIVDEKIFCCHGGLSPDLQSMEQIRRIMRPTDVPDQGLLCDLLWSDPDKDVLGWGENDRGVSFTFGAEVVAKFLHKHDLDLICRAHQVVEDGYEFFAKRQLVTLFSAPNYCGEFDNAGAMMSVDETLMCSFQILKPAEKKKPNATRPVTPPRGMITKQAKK
UniProt P40937, whole entry: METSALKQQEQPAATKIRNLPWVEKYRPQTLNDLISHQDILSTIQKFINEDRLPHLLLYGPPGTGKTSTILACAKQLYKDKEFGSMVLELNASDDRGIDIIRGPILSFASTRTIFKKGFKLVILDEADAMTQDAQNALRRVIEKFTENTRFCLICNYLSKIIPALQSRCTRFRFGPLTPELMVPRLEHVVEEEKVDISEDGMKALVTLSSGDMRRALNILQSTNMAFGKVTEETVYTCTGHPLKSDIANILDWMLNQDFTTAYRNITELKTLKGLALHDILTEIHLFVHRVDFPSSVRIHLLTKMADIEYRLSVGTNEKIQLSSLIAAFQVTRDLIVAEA
UniProt P35251: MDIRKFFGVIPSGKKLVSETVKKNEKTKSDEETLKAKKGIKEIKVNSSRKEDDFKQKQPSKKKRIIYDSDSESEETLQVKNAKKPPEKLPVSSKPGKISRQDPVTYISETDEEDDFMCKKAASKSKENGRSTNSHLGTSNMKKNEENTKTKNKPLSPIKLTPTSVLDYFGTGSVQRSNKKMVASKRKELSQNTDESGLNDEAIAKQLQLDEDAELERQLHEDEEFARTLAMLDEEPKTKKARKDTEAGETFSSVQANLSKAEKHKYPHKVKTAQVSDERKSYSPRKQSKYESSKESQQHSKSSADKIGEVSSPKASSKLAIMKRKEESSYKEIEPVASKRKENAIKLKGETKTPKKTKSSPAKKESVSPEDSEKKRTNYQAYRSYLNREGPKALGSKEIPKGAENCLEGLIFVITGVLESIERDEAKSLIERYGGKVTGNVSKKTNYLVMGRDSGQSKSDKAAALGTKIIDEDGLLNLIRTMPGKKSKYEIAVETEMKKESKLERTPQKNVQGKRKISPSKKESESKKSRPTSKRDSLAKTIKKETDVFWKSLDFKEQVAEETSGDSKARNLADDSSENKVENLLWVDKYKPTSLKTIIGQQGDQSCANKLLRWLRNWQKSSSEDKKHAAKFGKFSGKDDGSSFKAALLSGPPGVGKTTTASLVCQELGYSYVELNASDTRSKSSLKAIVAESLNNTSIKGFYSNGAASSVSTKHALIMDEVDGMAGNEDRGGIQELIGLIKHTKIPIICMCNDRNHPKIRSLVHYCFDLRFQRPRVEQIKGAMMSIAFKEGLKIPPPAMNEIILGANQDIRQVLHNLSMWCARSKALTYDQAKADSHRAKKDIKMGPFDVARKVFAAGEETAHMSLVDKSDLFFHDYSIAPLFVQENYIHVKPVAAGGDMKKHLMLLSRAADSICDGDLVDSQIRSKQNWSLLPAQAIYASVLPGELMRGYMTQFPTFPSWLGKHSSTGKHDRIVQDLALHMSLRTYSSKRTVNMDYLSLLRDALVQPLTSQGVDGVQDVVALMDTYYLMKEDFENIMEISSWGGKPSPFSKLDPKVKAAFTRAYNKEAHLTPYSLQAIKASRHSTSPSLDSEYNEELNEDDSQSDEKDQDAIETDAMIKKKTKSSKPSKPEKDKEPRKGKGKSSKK
UniProt P32121, whole entry: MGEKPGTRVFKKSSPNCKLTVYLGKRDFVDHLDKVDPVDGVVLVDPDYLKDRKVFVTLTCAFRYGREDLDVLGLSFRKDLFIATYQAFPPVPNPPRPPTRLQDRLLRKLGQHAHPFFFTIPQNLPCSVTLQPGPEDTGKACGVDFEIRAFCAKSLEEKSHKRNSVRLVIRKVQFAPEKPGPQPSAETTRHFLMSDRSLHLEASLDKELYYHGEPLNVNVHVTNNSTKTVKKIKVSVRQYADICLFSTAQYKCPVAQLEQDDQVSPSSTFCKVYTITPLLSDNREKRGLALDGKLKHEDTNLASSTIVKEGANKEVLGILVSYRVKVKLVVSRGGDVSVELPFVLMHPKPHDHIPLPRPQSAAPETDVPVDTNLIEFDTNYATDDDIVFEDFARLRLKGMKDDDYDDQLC
UniProt P30085: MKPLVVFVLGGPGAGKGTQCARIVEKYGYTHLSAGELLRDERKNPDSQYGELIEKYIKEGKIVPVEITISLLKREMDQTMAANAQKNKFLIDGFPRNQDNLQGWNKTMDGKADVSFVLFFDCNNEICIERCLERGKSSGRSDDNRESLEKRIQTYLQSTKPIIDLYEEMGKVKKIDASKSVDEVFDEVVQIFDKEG
UniProt P28562: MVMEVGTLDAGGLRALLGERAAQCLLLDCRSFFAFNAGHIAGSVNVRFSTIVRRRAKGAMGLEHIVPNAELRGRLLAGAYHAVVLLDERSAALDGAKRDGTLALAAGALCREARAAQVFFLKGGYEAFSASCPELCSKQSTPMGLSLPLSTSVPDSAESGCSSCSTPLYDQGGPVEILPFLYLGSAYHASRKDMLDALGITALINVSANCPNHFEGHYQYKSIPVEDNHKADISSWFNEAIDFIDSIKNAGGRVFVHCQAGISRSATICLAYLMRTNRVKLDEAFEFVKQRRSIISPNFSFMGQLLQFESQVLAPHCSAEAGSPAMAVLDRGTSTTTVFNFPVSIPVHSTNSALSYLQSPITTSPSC

compound: CN[C@@H]1C[C@H]2O[C@@](C)([C@@H]1OC)n1c3ccccc3c3c4c(c5c6ccccc6n2c5c31)C(=O)NC4 [staurosporine]; assay: log2 fold change of tryptic peptide abundance, ligand vs vehicle (limited proteolysis) (log2 ratio); higher = more trypsin-susceptible (destabilized); conditions: ligand concentration: 20 uM; sample: K562 cleared lysate; digestion: 4 min, 22 C (HT-PELSA RT4min, Orbitrap Astral)

Target	log2 fold change
GTF2E2 (peptide sequence: SVTVDSMDEEKIEEYLKR, peptide start residue: 222) (UniProt P29084)	0.172
DDIT3 (peptide sequence: KVAQLAEENER, peptide start residue: 130) (UniProt P35638)	0.231
CASP2 (peptide sequence: RGPQAFDAFCEALR, peptide start residue: 94) (UniProt P42575)	0.149
SCN4A (peptide sequence: AFLLGLLHGK, peptide start residue: 838) (UniProt P35499)	0.464
POLR2B (peptide sequence: LLFQELMSMSIAPR, peptide start residue: 1157) (UniProt P30876)	-0.354
PPP1CC (peptide sequence: NVQLQENEIR, peptide start residue: 27) (UniProt P36873)	0.584
RFC5 (peptide sequence: LPHLLLYGPPGTGK, peptide start residue: 53) (UniProt P40937)	0.822
RFC1 (peptide sequence: SLVHYCFDLR, peptide start residue: 762) (UniProt P35251)	-0.255
ARRB2 (peptide sequence: LKHEDTNLASSTIVK, peptide start residue: 294) (UniProt P32121)	-0.217
CMPK1 (peptide sequence: IVPVEITISLLK, peptide start residue: 62) (UniProt P30085)	-0.133
UniProt P28562 (peptide sequence: LLAGAYHAVVLLDER, peptide start residue: 75)	0.361
